Assay results: patent publication US20170101470A1 (PROTHENA BIOSCIENCES, published 2017)
No constants are given. Whether binding was seen depends on the method and setting. Some results given as binding are weak or reduced against the parent protein; the word gives no strength. For some of these results: Where a sequence is shown, tags or fusion partners need not be part of it.

T1: human MCAM-Fc protein (extracellular domain of human MCAM fused to human IgG) (human) (UniProt P43121)
T1 sequence: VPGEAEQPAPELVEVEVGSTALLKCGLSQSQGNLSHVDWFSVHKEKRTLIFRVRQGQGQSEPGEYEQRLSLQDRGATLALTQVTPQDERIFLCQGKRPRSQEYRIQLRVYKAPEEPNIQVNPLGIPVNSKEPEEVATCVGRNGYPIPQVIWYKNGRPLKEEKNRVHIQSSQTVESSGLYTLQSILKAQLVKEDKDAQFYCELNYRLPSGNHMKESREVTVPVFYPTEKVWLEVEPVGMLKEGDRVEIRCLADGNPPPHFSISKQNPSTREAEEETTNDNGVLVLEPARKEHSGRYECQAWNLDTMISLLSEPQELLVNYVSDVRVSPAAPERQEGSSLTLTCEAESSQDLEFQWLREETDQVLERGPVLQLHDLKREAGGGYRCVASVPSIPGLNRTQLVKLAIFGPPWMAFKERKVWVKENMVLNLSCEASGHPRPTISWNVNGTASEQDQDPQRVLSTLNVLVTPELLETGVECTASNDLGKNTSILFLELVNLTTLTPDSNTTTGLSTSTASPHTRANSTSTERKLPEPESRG

T2: human MCAM expressed on CHO cells (full length human MCAM gene) (human) (UniProt P43121)
T2 sequence: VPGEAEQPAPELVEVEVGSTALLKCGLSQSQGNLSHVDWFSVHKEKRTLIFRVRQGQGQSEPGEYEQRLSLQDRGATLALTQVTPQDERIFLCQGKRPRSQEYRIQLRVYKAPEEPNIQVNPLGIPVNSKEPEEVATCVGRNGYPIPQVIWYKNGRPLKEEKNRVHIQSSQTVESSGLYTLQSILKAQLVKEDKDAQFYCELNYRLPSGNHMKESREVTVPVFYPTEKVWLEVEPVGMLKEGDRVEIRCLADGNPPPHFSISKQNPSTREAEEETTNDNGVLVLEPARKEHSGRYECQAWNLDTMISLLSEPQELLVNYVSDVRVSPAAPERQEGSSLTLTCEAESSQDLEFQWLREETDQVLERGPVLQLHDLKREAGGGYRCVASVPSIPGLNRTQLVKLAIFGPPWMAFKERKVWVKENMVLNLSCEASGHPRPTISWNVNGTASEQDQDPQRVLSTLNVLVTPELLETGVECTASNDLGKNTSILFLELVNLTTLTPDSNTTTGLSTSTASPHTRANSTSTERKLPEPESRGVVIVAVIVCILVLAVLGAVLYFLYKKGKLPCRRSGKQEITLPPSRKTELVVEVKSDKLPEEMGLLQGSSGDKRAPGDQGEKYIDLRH

T3: human MCAM domains 1 and 2 hFc construct (human, UniProt P43121 19-242)
T3 construct: One of the 'various MCAMhFc domains' loaded on the ForteBio sensors
T3 sequence: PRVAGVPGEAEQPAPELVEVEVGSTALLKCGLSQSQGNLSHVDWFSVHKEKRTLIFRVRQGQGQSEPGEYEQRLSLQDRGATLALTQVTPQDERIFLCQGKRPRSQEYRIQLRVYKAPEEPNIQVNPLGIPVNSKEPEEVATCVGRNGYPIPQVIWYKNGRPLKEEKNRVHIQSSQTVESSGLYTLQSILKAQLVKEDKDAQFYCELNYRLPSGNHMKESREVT


How the values were obtained:
[1] = target: T1, human MCAM-Fc protein (extracellular domain of human MCAM fused to human IgG) (human); experiment: summary sentence of Example 3 (ForteBio, MCAMhFc)
[2] = target: T2, human MCAM expressed on CHO cells (full length human MCAM gene) (human); experiment: binding affinity experiments, data not shown; human MCAM on the surface of living cells
[3] = target: T3, human MCAM domains 1 and 2 hFc construct; experiment: ForteBio Octet Red, MCAMhFc domains on anti-human IgG Fc sensors, antibody at 5 ug/ml

Row | binding [1] | binding [2] | binding [3] | Binder
1 | binds | binds | binds | rat anti-human MCAM monoclonal antibody clone 2107.4.10 (antibody, V domains shown, Rat hybridoma antibody) VH: QVQLKESGPGLVQSSQTLSLTCTVSGFSLTSNGVSWVRQPPGKGLEWIAAISSGGSTYYNSAFKSRLSISRNTSKSQVLLKMNSLQTEDTGMYFCARHRPFYFDYWGQGVMVTVSS VL: DIQVTQSPSLLSASVGDRVTLNCKGSQNIYKSLAWFRLKRGEAPKLLIYDANSLQTGIPSRFSGSGSGTDFTLTITSLQPEDVATYFCQQYYSGYTFGAGTKLELK
2 | – | – | binds | rat anti-human MCAM monoclonal antibody clone 2120.4.19 (antibody, V domains shown, also called m2120) VH: QVQLKESGPGLVQPSQTLSLTCTVSGFSLTSNGVSWVRQPPGKGLEWIAAISSGGTTYYNSAFKSRLSISRNTSKSQVLLKMNSLQTEDTAMYFCARRYGYGWYFDFWGPGTMVTVSS VL: DIRMTQSPSLLSASVGDRVTLNCKASQNIYNSLAWYQQKLGEGPKVLIPNANSLQTGIPSRFSGSGSGTDFTLTISSLQPEDFATYFCQQFYSGYTFGAGTKLELK
